{"source": "paper PMC8384837", "conditions_in_all_cases": "yeast three-hybrid, YBZ-1, SC-Leu-His + 0.5 mM 3-AT, 4 days", "key": {"[1]": {"target": "T1, PUM1 PUF domain R5-NGC C1007N + R1008G + Q1011C (UniProt Q14671)", "T1 sequence": "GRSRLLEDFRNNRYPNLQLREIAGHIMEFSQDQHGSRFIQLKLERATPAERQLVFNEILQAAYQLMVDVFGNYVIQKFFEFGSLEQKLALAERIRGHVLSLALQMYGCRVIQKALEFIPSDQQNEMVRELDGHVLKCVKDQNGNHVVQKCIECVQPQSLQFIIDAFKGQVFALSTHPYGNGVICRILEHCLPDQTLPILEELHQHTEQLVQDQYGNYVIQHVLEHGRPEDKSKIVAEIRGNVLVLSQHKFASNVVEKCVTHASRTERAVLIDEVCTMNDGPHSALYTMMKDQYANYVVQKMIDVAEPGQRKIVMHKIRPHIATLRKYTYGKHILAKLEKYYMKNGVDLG"}, "[2]": {"target": "T2, PUM1 PUF domain R5-NGS C1007N + R1008G + Q1011S (UniProt Q14671)", "T2 sequence": "T1 sequence with C184S"}, "[3]": {"target": "T3, PUM1 PUF domain R5-NLL C1007N + R1008L + Q1011L (UniProt Q14671)", "T3 sequence": "T1 sequence with G181L, C184L"}, "[4]": {"target": "T4, PUM1 PUF domain R5-NSV C1007N + R1008S + Q1011V (UniProt Q14671)", "T4 sequence": "T1 sequence with G181S, C184V"}, "[5]": {"target": "T5, PUM1 PUF domain R5-PFP C1007P + R1008F + Q1011P (UniProt Q14671)", "T5 sequence": "T1 sequence with N180P, G181F, C184P"}, "[6]": {"target": "T6, PUM1 PUF domain R5-PHL C1007P + R1008H + Q1011L (Homo sapiens) (UniProt Q14671)", "T6 sequence": "T1 sequence with N180P, G181H, C184L"}, "[7]": {"target": "T7, PUM1 PUF domain R5-PLD C1007P + R1008L + Q1011D (UniProt Q14671)", "T7 sequence": "T1 sequence with N180P, G181L, C184D"}, "[8]": {"target": "T8, PUM1 PUF domain R5-PMG C1007P + R1008M + Q1011G (Homo sapiens) (UniProt Q14671)", "T8 sequence": "T1 sequence with N180P, G181M, C184G"}, "[9]": {"target": "T9, PUM1 PUF domain R5-PRA C1007P + Q1011A (Homo sapiens) (UniProt Q14671)", "T9 sequence": "T1 sequence with N180P, G181R, C184A"}, "[10]": {"target": "T10, PUM1 PUF domain R5-PRC C1007P + Q1011C (Homo sapiens) (UniProt Q14671)", "T10 sequence": "T1 sequence with N180P, G181R"}, "[11]": {"target": "T11, PUM1 PUF domain R5-PRE C1007P + Q1011E (Homo sapiens) (UniProt Q14671)", "T11 sequence": "T1 sequence with N180P, G181R, C184E"}, "[12]": {"target": "T12, PUM1 PUF domain R5-PRF C1007P + Q1011F (Homo sapiens) (UniProt Q14671)", "T12 sequence": "T1 sequence with N180P, G181R, C184F"}, "[13]": {"target": "T13, PUM1 PUF domain R5-PRH C1007P + Q1011H (Homo sapiens) (UniProt Q14671)", "T13 sequence": "T1 sequence with N180P, G181R, C184H"}, "[14]": {"target": "T14, PUM1 PUF domain R5-PRI C1007P + Q1011I (Homo sapiens) (UniProt Q14671)", "T14 sequence": "T1 sequence with N180P, G181R, C184I"}, "[15]": {"target": "T15, PUM1 PUF domain R5-PRQ C1007P (Homo sapiens) (UniProt Q14671)", "T15 sequence": "T1 sequence with N180P, G181R, C184Q"}, "[16]": {"target": "T16, PUM1 PUF domain R5-PRS C1007P + Q1011S (Homo sapiens) (UniProt Q14671)", "T16 sequence": "T1 sequence with N180P, G181R, C184S"}, "[17]": {"target": "T17, PUM1 PUF domain R5-QCL C1007Q + R1008C + Q1011L (UniProt Q14671)", "T17 sequence": "T1 sequence with N180Q, G181C, C184L"}, "[18]": {"target": "T18, PUM1 PUF domain R5-QCS C1007Q + R1008C + Q1011S (UniProt Q14671)", "T18 sequence": "T1 sequence with N180Q, G181C, C184S"}, "[19]": {"target": "T19, PUM1 PUF domain R5-QKV C1007Q + R1008K + Q1011V (Homo sapiens) (UniProt Q14671)", "T19 sequence": "T1 sequence with N180Q, G181K, C184V"}, "[20]": {"target": "T20, PUM1 PUF domain R5-QLS C1007Q + R1008L + Q1011S (UniProt Q14671)", "T20 sequence": "T1 sequence with N180Q, G181L, C184S"}, "[21]": {"target": "T21, PUM1 PUF domain R5-QLV C1007Q + R1008L + Q1011V (UniProt Q14671)", "T21 sequence": "T1 sequence with N180Q, G181L, C184V"}, "[22]": {"target": "T22, PUM1 PUF domain R5-QMG C1007Q + R1008M + Q1011G (UniProt Q14671)", "T22 sequence": "T1 sequence with N180Q, G181M, C184G"}, "[23]": {"target": "T23, PUM1 PUF domain R5-QNG C1007Q + R1008N + Q1011G (Homo sapiens) (UniProt Q14671)", "T23 sequence": "T1 sequence with N180Q, G181N, C184G"}, "[24]": {"target": "T24, PUM1 PUF domain R5-QQG C1007Q + R1008Q + Q1011G (UniProt Q14671)", "T24 sequence": "T1 sequence with N180Q, G181Q, C184G"}, "[25]": {"target": "T25, PUM1 PUF domain R5-QRS C1007Q + Q1011S (Homo sapiens) (UniProt Q14671)", "T25 sequence": "T1 sequence with N180Q, G181R, C184S"}, "[26]": {"target": "T26, PUM1 PUF domain R5-RDG C1007R + R1008D + Q1011G (UniProt Q14671)", "T26 sequence": "T1 sequence with N180R, G181D, C184G"}, "[27]": {"target": "T27, PUM1 PUF domain R5-RDK C1007R + R1008D + Q1011K (Homo sapiens) (UniProt Q14671)", "T27 sequence": "T1 sequence with N180R, G181D, C184K"}, "[28]": {"target": "T28, PUM1 PUF domain R5-RPM C1007R + R1008P + Q1011M (Homo sapiens) (UniProt Q14671)", "T28 sequence": "T1 sequence with N180R, G181P, C184M"}, "[29]": {"target": "T29, PUM1 PUF domain R5-RPN C1007R + R1008P + Q1011N (Homo sapiens) (UniProt Q14671)", "T29 sequence": "T1 sequence with N180R, G181P, C184N"}, "[30]": {"target": "T30, PUM1 PUF domain R5-SAC C1007S + R1008A + Q1011C (UniProt Q14671)", "T30 sequence": "T1 sequence with N180S, G181A"}, "[31]": {"target": "T31, PUM1 PUF domain R5-SAG C1007S + R1008A + Q1011G (Homo sapiens) (UniProt Q14671)", "T31 sequence": "T1 sequence with N180S, G181A, C184G"}, "[32]": {"target": "T32, PUM1 PUF domain R5-SAP C1007S + R1008A + Q1011P (UniProt Q14671)", "T32 sequence": "T1 sequence with N180S, G181A, C184P"}, "[33]": {"target": "T33, PUM1 PUF domain R5-SAS C1007S + R1008A + Q1011S (UniProt Q14671)", "T33 sequence": "T1 sequence with N180S, G181A, C184S"}, "[34]": {"target": "T34, PUM1 PUF domain R5-SAT C1007S + R1008A + Q1011T (UniProt Q14671)", "T34 sequence": "T1 sequence with N180S, G181A, C184T"}, "[35]": {"target": "T35, PUM1 PUF domain R5-SED C1007S + R1008E + Q1011D (UniProt Q14671)", "T35 sequence": "T1 sequence with N180S, G181E, C184D"}, "[36]": {"target": "T36, PUM1 PUF domain R5-SEQ C1007S + R1008E (UniProt Q14671)", "T36 sequence": "T1 sequence with N180S, G181E, C184Q"}, "[37]": {"target": "T37, PUM1 PUF domain R5-SGC C1007S + R1008G + Q1011C (UniProt Q14671)", "T37 sequence": "T1 sequence with N180S"}, "[38]": {"target": "T38, PUM1 PUF domain R5-SGG C1007S + R1008G + Q1011G (UniProt Q14671)", "T38 sequence": "T1 sequence with N180S, C184G"}, "[39]": {"target": "T39, PUM1 PUF domain R5-SGS C1007S + R1008G + Q1011S (UniProt Q14671)", "T39 sequence": "T1 sequence with N180S, C184S"}}, "note": "Substitutions are numbered along the chain they refer to. The list shows a part of the results. For part of these data: At the low end of the ranking the order means little.", "data": [{"sequence": "GGCUAGAACUAGUGGAUCCCCCGGCGCCCGGCGGCUCGAGCCCGGGUAAGUGUCAAUAGUCUGCAUGCCGCCGGGCGCCAUGCCUGCAGGUCGACUCUAGAAAACAUG", "values": [{"measurement": "binding signal (log2 enrichment (interaction score))", "setting": "[1]", "value": "< -6.42"}, {"measurement": "binding signal (log2 enrichment (interaction score))", "setting": "[2]", "value": -4.06}, {"measurement": "binding signal (log2 enrichment (interaction score))", "setting": "[3]", "value": "< -6.62"}, {"measurement": "binding signal (log2 enrichment (interaction score))", "setting": "[4]", "value": "< -7.81"}, {"measurement": "binding signal (log2 enrichment (interaction score))", "setting": "[5]", "value": "< -6.16"}, {"measurement": "binding signal (log2 enrichment (interaction score))", "setting": "[6]", "value": -1.55}, {"measurement": "binding signal (log2 enrichment (interaction score))", "setting": "[7]", "value": "< -6.18"}, {"measurement": "binding signal (log2 enrichment (interaction score))", "setting": "[8]", "value": -1.54}, {"measurement": "binding signal (log2 enrichment (interaction score))", "setting": "[9]", "value": -0.58}, {"measurement": "binding signal (log2 enrichment (interaction score))", "setting": "[10]", "value": -1.45}, {"measurement": "binding signal (log2 enrichment (interaction score))", "setting": "[11]", "value": 0.4}, {"measurement": "binding signal (log2 enrichment (interaction score))", "setting": "[12]", "value": -2.81}, {"measurement": "binding signal (log2 enrichment (interaction score))", "setting": "[13]", "value": 0.33}, {"measurement": "binding signal (log2 enrichment (interaction score))", "setting": "[14]", "value": -1.12}, {"measurement": "binding signal (log2 enrichment (interaction score))", "setting": "[15]", "value": 0.22}, {"measurement": "binding signal (log2 enrichment (interaction score))", "setting": "[16]", "value": 0.21}, {"measurement": "binding signal (log2 enrichment (interaction score))", "setting": "[17]", "value": "< -5.45"}, {"measurement": "binding signal (log2 enrichment (interaction score))", "setting": "[18]", "value": -2.63}, {"measurement": "binding signal (log2 enrichment (interaction score))", "setting": "[19]", "value": 1.16}, {"measurement": "binding signal (log2 enrichment (interaction score))", "setting": "[20]", "value": -2.78}, {"measurement": "binding signal (log2 enrichment (interaction score))", "setting": "[21]", "value": "< -6.68"}, {"measurement": "binding signal (log2 enrichment (interaction score))", "setting": "[22]", "value": "< -6.87"}, {"measurement": "binding signal (log2 enrichment (interaction score))", "setting": "[23]", "value": -0.85}, {"measurement": "binding signal (log2 enrichment (interaction score))", "setting": "[24]", "value": -3.12}, {"measurement": "binding signal (log2 enrichment (interaction score))", "setting": "[25]", "value": 0.35}, {"measurement": "binding signal (log2 enrichment (interaction score))", "setting": "[26]", "value": -4.17}, {"measurement": "binding signal (log2 enrichment (interaction score))", "setting": "[27]", "value": -2.12}, {"measurement": "binding signal (log2 enrichment (interaction score))", "setting": "[28]", "value": -0.48}, {"measurement": "binding signal (log2 enrichment (interaction score))", "setting": "[29]", "value": -0.3}, {"measurement": "binding signal (log2 enrichment (interaction score))", "setting": "[30]", "value": -4.45}, {"measurement": "binding signal (log2 enrichment (interaction score))", "setting": "[31]", "value": -2.21}, {"measurement": "binding signal (log2 enrichment (interaction score))", "setting": "[32]", "value": "< -7.7"}, {"measurement": "binding signal (log2 enrichment (interaction score))", "setting": "[33]", "value": -5.07}, {"measurement": "binding signal (log2 enrichment (interaction score))", "setting": "[34]", "value": "< -7.6"}, {"measurement": "binding signal (log2 enrichment (interaction score))", "setting": "[35]", "value": "< -6.08"}, {"measurement": "binding signal (log2 enrichment (interaction score))", "setting": "[36]", "value": "< -6.18"}, {"measurement": "binding signal (log2 enrichment (interaction score))", "setting": "[37]", "value": "< -7.38"}, {"measurement": "binding signal (log2 enrichment (interaction score))", "setting": "[38]", "value": -2.85}, {"measurement": "binding signal (log2 enrichment (interaction score))", "setting": "[39]", "value": -4.67}]}]}
